From PMC5744064, “Regulation of Class A β-Lactamase CzoA by CzoR and IscR in Comamonas testosteroni S44” (Frontiers in Microbiology, 2017)
Construct, isoform or probe ends are uncertain for at least one entry.

Target: IscR (Fe-S cluster assembly regulator) (Comamonas testosteroni S44) (UniProt A0A0L7MDB4)
Experiment: EMSA
Details: 1.8 pmol probe; recombinant protein; residues 1-178; protein details: His6 (pET-28a(+)); label: 5'-FAM (EMSA-CzoR-F); probe letters rebuilt from the primers and the genome

Sequence: CAAGGCGTTCAGTGGTAGCTGCATATCTCAATCAAGATAAAAGTTTTTCTAATGGATCGTGTCAATTATTACTGCTGGTTCGTAGGGATCTACCGATTTATGCTTCAAACCATGGCAGTTAACCAAAAGAGGATCTTATGCAACGACGCAGCATGCTGACAACAGGACTGGCCTTGGGTCTGGGGGCCTGGGGACTGAGCGGCTGTGCTTTTATCTCCAAGCAGCAAGCCGCAGCAGCGAGAACATTGAGCGACGAGT (double strand) [czoR-czoA intergenic region / PczoA, 259 bp]
- binding result: binds
